Experimental data as given in patent US8969363B2, “Heterocyclic compounds and uses thereof” (Infinity Pharmaceuticals, Inc., priority 2011, dated 2015).
For part of these data: At least one structure is not confirmed: it was looked up by name or label, or the drawing left a doubt. Some results were stated once for a whole list of compounds, not compound by compound.

Assays:
[1] = tested on: haematological malignancies (CLL, mantle cell lymphoma, non Hodgkin's lymphoma); details: cited from earlier work
[2] = tested on: rat Collagen Induced Arthritis Model; assay: Rat collagen induced arthritis model; format: in vivo
[3] = tested on: anti-CD3 mediated phosphorylation of Akt-S473 and S6; assay: Kinase signaling in blood (phosflow); format: cell-based; details: anti-CD3 stimulated splenocytes or peripheral blood mononuclear cells
purified splenic B-cells = assay: B-cell antibody production assay; format: cell-based, mouse; details: stimulated B-cells, mTOR inhibitor alone

## CC[C@H](Nc1ncnc2[nH]cnc12)c1nc2cccc(F)c2c(=O)n1-c1ccccc1 [CAL-101]
[1]; CLL patients
  lymph node reduction and redistribution of lymphocytes: induces rapid lymph node reduction and redistribution of lymphocytes into the circulation
[1]; CLL
  expression of stromal and T-cell derived factors (CCL3, CCL4, CXCL13): suppresses the expression of stromal and T-cell derived factors including CCL3, CCL4, and CXCL13
[1]; phase 1 trial, patients
  activity in CLL: showed activity in CLL in patients with poor prognostic characteristics
[1]; single agent
  activity in mantle cell lymphoma and refractory non Hodgkin's lymphoma: active in mantle cell lymphoma and refractory non Hodgkin's lymphoma

## C[C@H](Nc1ncnc2cccnc12)c1cc2cccc(-c3cnn(C)c3)c2c(=O)n1-c1ccccc1 [Compound I-21]
[2]
  EC50 in rat Collagen Induced Arthritis Model: less than 50 mg/kg

## COc1ncc(-c2cccc3nc([C@H](C)Nc4nc(N)nc5cccnc45)n(-c4ccccc4)c(=O)c23)cn1 [Compound I-86]
[2]
  EC50 in rat Collagen Induced Arthritis Model: less than 50 mg/kg

## C[C@H](Nc1nc(N)nc2cccnc12)c1nc2cccc(-c3cnn(C)c3)c2c(=O)n1-c1ccccc1 [Compound I-87]
[2]
  EC50 in rat Collagen Induced Arthritis Model: less than 50 mg/kg

## Cc1ncc(-c2cccc3nc([C@H](C)Nc4nc(N)nc5cccnc45)n(-c4ccccc4)c(=O)c23)cn1 [Compound I-91, (S)-2-(1-((2-aminopyrido[3,2-d]pyrimidin-4-yl)amino)ethyl)-5-(2-methylpyrimidin-5-yl)-3-phenylquinazolin-4(3H)-one]
[2]
  EC50 in rat Collagen Induced Arthritis Model: less than 50 mg/kg

## C[C@H](Nc1ncnc2[nH]cnc12)c1cc2cccc(C(F)(F)F)c2c(=O)n1-c1cccc(F)c1 [III-13]
[2]
  EC50 in rat Collagen Induced Arthritis Model: less than 50 mg/kg

## CO[C@H]1C[C@@H]2CC[C@@H](C)[C@@](O)(O2)C(=O)C(=O)N2CCCC[C@H]2C(=O)O[C@H]([C@H](C)C[C@@H]2CC[C@@H](O)[C@H](OC)C2)CC(=O)[C@H](C)/C=C(\C)[C@@H](O)[C@@H](OC)C(=O)[C@H](C)C[C@H](C)/C=C/C=C/C=C/1C [rapamycin]
[3]
  Akt phosphorylation (Akt-S473): enhances Akt phosphorylation
  S6 phosphorylation: inhibits S6 phosphorylation
Purified splenic B-cells
  IgG and IgE response: little to no substantial effect on IgG and IgE response
